Results taken from patent EP2886531B1, “Aspartic acid derivatives” (Merck Patent GmbH, priority 2013, dated 2015).

What was measured:
[1] = HPLC analysis of crude VKDRYI peptides directly after synthesis (deletion sequences); conditions: crude peptides directly after the synthesis, limit of detection
[2] = UPLC analysis of crude VKDNYI peptides directly after synthesis (deletion sequences); conditions: crude peptides directly after the synthesis, limit of detection

SMILES	Asp deletion and deletions of a preceding amino acid [1]	Asp deletion and deletions of a preceding amino acid [2]
CCCCC(CCCC)(CCCC)OC(=O)C[C@H](NC(=O)OCC1c2ccccc2-c2ccccc21)C(=O)O [Bno]	no Asp deletion and no deletions of a proceeding amino acid are detected	no Asp deletion and no deletions of a proceding amino acid are detected
CCC(C)(CC)OC(=O)C[C@H](NC(=O)OCC1c2ccccc2-c2ccccc21)C(=O)O [Mpe, Fmoc-Asp(OMpe)-OH, reference compound]	no Asp deletion and no deletions of a proceeding amino acid are detected	no Asp deletion and no deletions of a proceding amino acid are detected
